Experimental data: patent US8691866
Positions count from the first letter of the chain named. For at least one entry, the source does not settle the construct or the ends of the probe. At least one result comes from cells or an extract, where the contact may be indirect. For some of these results: No signal at the amounts used counts as a negative. Protein sequences can lack the tags named with them.

Legend:
[1] = target: T1, IRP1 S138E (phosphomimetic) (UniProt P21399); assay: pull-down; conditions: biotinylated mRNA pull down; fails to dissociate in hypoxia; protein in a lysate after overexpression; protein details: stably expressed in 786-O or IRP1-/- MEFs
T1 sequence (looked up, limits assumed): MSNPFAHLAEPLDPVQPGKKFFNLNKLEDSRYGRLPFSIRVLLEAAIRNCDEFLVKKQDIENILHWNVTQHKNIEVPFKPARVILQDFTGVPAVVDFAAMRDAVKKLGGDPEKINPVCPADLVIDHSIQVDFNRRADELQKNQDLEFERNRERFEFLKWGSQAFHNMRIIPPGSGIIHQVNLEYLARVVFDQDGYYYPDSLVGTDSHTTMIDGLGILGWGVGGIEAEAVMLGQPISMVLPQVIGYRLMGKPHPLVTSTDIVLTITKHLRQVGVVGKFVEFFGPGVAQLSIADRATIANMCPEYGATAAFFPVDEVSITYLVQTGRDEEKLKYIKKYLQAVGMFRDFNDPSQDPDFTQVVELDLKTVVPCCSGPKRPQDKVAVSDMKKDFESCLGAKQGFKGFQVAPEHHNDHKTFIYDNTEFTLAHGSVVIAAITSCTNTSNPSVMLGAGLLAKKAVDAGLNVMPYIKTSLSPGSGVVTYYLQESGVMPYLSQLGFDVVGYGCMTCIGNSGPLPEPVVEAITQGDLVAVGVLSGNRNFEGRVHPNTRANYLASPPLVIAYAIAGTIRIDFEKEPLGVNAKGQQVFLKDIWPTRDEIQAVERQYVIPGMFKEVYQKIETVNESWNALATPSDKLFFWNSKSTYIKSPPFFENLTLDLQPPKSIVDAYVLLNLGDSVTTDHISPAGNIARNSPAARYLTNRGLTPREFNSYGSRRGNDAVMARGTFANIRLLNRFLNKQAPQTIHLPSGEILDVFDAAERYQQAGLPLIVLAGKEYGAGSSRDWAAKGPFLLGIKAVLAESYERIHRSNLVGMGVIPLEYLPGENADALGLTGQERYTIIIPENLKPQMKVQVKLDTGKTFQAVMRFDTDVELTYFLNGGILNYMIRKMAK

[2] = target: T1, IRP1 S138E (phosphomimetic); assay: EMSA; conditions: protein in a lysate after overexpression; protein details: stably expressed in 786-O or IRP1-/- MEFs
[3] = target: T2, IRP2 (iron regulatory protein 2, IREB2) (UniProt P48200); assay: EMSA; conditions: no IRP2 supershift, normoxia or hypoxia, with compound 76 or DFO; protein in an extract; protein details: endogenous, 786-O cell lysate
T2 sequence (looked up, limits assumed): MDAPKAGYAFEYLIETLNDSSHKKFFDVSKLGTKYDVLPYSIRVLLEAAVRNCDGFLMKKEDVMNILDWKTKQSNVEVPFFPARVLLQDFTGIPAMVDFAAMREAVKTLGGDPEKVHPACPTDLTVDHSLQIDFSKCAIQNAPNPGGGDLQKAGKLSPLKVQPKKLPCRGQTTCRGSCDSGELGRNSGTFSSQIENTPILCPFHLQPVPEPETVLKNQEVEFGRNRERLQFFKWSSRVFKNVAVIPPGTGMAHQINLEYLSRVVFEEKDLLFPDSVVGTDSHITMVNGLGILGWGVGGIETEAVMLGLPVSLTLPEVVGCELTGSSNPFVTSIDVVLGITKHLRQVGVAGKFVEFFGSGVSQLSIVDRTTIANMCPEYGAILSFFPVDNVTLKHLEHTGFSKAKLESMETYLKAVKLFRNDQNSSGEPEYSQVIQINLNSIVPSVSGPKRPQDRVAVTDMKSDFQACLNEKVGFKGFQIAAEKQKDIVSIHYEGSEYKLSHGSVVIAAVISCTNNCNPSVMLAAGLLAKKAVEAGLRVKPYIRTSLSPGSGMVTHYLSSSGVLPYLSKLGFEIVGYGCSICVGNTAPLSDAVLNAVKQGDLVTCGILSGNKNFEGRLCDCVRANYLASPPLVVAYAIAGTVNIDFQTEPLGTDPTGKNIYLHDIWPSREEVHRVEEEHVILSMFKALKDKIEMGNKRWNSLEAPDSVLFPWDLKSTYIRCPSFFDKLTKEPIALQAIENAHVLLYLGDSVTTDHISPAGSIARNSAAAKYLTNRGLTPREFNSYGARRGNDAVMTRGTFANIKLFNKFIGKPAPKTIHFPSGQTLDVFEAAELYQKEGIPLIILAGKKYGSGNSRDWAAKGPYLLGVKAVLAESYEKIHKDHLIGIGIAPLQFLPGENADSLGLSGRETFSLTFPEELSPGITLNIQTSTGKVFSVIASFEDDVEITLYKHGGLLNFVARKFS

[4] = target: T3, IRP1 (iron regulatory protein 1, ACO1) (UniProt P21399); assay: EMSA; conditions: supershift with IRP1 antibody; enhanced by compounds 40, 41, 76, 77 and PGJ2, decreased by hypoxia; printed SEQ 17 is the IRE core, probe was nt 50-100 of 5'-UTR; protein in an extract; protein details: endogenous, 786-O cell lysate
T3 sequence (looked up, limits assumed): T1 sequence (looked up, limits assumed) with E138S

“UACAAUCCUCGGCAGUGUCCUGAGACUGUA [HIF-2a 5'-UTR IRE probe (nt 50-100, UTR16)]”: binds [1]; binds [2]; no binding [3]. “UACAAUCCUCGGCAGUGUCCUGAGACUGUA [HIF-2a 5'-UTR IRE probe (nt 50-100, UTR16)]”: binds [4].
